Measurements: publication PMC12867876

Sequences of proteins named here, by UniProt entry; tags and fusion partners are left off.
UniProt Q5ZMN3: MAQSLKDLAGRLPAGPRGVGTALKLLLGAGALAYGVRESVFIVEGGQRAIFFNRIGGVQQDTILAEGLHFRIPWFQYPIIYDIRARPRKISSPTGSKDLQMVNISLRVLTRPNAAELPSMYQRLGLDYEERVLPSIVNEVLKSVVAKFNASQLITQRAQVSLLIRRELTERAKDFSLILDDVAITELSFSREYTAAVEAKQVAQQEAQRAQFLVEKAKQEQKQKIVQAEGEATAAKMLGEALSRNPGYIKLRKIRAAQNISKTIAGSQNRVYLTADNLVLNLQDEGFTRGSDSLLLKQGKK

Molecular target: T1, Flag-CREG1 (cellular repressor of E1A-stimulated genes 1) (chicken) (UniProt Q5ZJ73)
T1 sequence: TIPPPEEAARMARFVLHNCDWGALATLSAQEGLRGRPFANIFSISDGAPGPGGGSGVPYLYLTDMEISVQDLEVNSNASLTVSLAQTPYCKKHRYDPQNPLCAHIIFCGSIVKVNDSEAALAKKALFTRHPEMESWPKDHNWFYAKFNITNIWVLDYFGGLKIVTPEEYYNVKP
Experiment: affinity purification with mass spectrometry; lysate (1000 μg) of Flag-CREG1 overexpressing DF-1 cells under viral infection; Flag antibody or IgG control with protein A/G beads overnight at 4 °C; 10% SDS-PAGE, silver staining, LC-MS/MS

Substance | binding
PHB2 (from UniProt Q5ZMN3 1-301) | binds
SLC25A4 (chicken (endogenous in DF-1)) | binds
SLC25A3 (chicken (endogenous in DF-1)) | binds

Results are given in words; binding and its absence hold for the method and conditions named. Binding seen in cells or lysates may run through a third protein. A yes stands for co-enrichment or nearness to the bait. Other partners may have been found. Sequences can lack the tags named with a protein.
